Measured values reported in patent US20260274875A1, “[…] COMPOUNDS, PREPARATION METHOD AND USE THEREOF” (HC SYNTHETIC PHARMACEUTICAL CO., LTD., priority 2022, published 2026).

Test system: histamine-induced asthma in guinea pigs
Experiment: Antiasthmatic effect on histamine-induced asthma in guinea pigs
Type: in vivo, guinea pig
Details: 60 min after 1 mg/kg oral gavage; histamine hydrochloride spray; no asthma within 8 min counted as 8 min; X ± s, n = 5
Experimental: The time point at which the guinea pigs developed asthma was recorded. The time of convulsion and fall was taken as the latency period. Guinea pigs with a latency period exceeding 180 seconds were not selected. […] The guinea pigs were administered by oral gavage at a dose of 2 mL/kg·bw. Sixty minutes after the administration, the guinea pigs were placed in bell jars, and histamine hydrochloride solution was sprayed under the same conditions as in the previous selection. The latency period for the onset of asthma was recorded. […] The results were processed statistically.

For Clc1ccc2c(c1)CCc1cccnc1C2=C1CCNCC1 [Desloratadine, reference compound], the “Post-administration latency period” value was 268.33 ± 57.12 s.
